One test has as its target Rat MMP9 (rat, UniProt P50282 20-708, limits assumed). In words: ELISA (Table 2). (An ELISA detects its analyte on a solid surface through an enzyme-linked reagent.)
For test [1], the target named is Cynomolgus monkey MMP9 (cynomolgus monkey). Nature of the test: ELISA (Table 2).
The target of another test is Mouse MMP9 (mouse) (UniProt P41245). In words: ELISA.

Protein sequences, listed by entry. Tags and fused reporters are not part of them. Residues count along the entry.
UniProt P50282, residues 20-708: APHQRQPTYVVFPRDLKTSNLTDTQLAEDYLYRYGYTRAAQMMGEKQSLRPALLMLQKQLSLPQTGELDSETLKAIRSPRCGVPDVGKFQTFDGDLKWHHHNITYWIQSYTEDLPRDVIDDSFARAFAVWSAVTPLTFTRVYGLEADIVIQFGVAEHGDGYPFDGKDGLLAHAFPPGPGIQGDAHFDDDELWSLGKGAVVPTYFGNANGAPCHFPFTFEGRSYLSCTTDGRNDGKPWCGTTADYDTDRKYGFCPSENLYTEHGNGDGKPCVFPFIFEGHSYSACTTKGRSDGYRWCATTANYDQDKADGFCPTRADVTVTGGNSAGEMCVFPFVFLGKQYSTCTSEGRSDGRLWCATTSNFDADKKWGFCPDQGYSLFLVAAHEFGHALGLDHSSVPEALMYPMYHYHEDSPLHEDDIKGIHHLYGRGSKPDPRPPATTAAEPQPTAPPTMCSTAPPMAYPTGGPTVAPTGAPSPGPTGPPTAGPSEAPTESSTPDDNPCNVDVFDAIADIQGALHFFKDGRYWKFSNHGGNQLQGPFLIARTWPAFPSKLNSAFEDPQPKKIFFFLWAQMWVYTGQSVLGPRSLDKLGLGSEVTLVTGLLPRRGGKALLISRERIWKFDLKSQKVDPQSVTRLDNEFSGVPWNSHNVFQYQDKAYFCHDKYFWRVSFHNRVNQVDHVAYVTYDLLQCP
UniProt P41245, residues 20-730: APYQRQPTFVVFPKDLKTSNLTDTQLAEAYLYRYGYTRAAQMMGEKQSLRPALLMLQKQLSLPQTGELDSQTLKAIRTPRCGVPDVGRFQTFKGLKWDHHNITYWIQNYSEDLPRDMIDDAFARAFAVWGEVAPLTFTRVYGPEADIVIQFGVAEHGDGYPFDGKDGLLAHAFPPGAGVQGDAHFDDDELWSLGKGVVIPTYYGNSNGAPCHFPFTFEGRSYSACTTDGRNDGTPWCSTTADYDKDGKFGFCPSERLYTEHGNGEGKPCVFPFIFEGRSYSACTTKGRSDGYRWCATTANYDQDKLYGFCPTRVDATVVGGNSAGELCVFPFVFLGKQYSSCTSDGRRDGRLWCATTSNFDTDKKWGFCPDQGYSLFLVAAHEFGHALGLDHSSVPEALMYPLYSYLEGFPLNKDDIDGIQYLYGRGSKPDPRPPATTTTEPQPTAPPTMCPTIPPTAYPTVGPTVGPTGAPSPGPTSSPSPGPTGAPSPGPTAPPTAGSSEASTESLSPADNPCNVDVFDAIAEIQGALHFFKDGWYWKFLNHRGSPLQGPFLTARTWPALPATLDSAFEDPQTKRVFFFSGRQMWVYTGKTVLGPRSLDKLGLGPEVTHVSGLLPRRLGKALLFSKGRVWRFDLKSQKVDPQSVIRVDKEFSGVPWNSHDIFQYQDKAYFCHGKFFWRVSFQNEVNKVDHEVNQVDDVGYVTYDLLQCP

Results are given in words; binding and its absence hold for the method and conditions named. Some results given as binding are weak or reduced against the parent protein; the word gives no strength.

B1: AB0041 (antibody, mouse IgG2b, kappa, V domains shown)
VH: QVQLKESGPGLVAPSQSLSITCTVSGFSLLSYGVHWVRQPPGKGLEWLGVIWTGGTTNYNSALMSRLSISKDDSKSQVFLKMNSLQTDDTAIYYCARYYYGMDYWGQGTSVTVSS
VL: DIVMTQSHKFMSTSVGDRVSITCKASQDVRNTVAWYQQKTGQSPKLLIYSSSYRNTGVPDRFTGSGSGTDFTFTISSVQAEDLAVYFCQQHYITPYTFGGGTKLEIKR
notes: Mouse IgG2b/kappa from hybridoma; derived by aligning the variable region entries to the full chains; also called mouse monoclonal anti-MMP9 antibody (AB0041)
Turning to B1, the binding result (with Rat MMP9; in test [1]) was “binds” each time.

B2: AB0046 (antibody, mouse IgG1, kappa, V domains shown)
VH: QVQLQQPGSVLVRPGASVKLSCTASGYTFTSYWMNWVKQRPGQGLEWIGEIYPISGRTNYNEKFKVKATLTVDTSSSTAYMDLNSLTSEDSAVYYCARSRANWDDYWGQGTTLTVSS
VL: DIQMTQTTSSLSASLGDRVTISCSASQGISNYLNWYQQKPDGTFKLLIYYTSILHSGVPSRFSGSGSGTDYSLTISNLEPEDIATYYCQQYGWLPRTFGGGTKLEIKR
notes: Mouse IgG1/kappa raised in MMP9-knockout mice against mouse MMP9; also called surrogate mouse antibody AB0046
For B2, in the test with Mouse MMP9 (mouse), the binding result is “binds”.

Values taken from patent publication US20170183421A1 (Gilead, published 2017).
